# Assay results taken from patent EP4052593B1, “TOBACCO FILLER FOR HEAT-NOT-BURN TOBACCO PRODUCTS, HEAT-NOT-BURN TOBACCO PRODUCT, AND ELECTRICALLY HEATED TOBACCO PRODUCT” (Japan Tobacco Inc., priority 2019, dated 2021).
# Tested on: in-house panelists
# Assay: Sensory evaluation test (use test, visual analog scale method) of feeling of smoking (cigarette-like)
# Type: in vivo
# Conditions: for Feeling of smoking (cigarette-like) Difference between additive-containing lot and additive-free lot: Experimental Example 1, VAS method, 10 panelists, heater 320°C, substance sprayed on tobacco sheet at the weight addition ratio of Table 1 (0.9-5.1 %)
SMILES,Feeling of smoking (cigarette-like) Difference between additive-containing lot and additive-free lot,"feeling of smoking (result in words) (Experimental Example 1, Fig. 5 and Fig. 6)"
"CCCCC/C=C\C/C=C\CCCCCCCC(=O)O [Comparative Example 7, Linoleic acid]",-8.1,–
"CCCCCCCC(=O)O [Comparative Example 2, Octanoic acid]",-30.9,–
"CCCCCCCCCCCCCCCCCC(=O)O [Example 2, Stearic acid]",9.9,–
"CCCCCCCCCCCCCCCCCCC(=O)O [Comparative Example 5, Nonadecanoic acid]",5.4,effect was also confirmed
"CCCCCCCCCC(=O)O [Comparative Example 3, Decanoic acid]",-24.4,–
"CCCCCCCC/C=C\CCCCCCCC(=O)O [Comparative Example 8, Oleic acid]",-25.7,–
"CCCCCCCCCCCCCCCC(=O)O [Example 1, Palmitic acid]",8.5,–
"CCCCCCCCCCCCCC(=O)O [Comparative Example 4, Myristic acid]",-1.7,–
